# Measurements as given in US5902817A, “Certain sulfoxide and sulfone derivatives” (priority 1997, dated 1999).
# At least one compound was matched to its structure with a doubt left. Where a SMILES comes first, the peptide text is derived from it.
# Tested on: cortical cell cultures
# Experiment: In Vitro Toxicity of NAAG (LDH release)
# Format: cell-based, rat (Harlan Sprague Dawley)
smiles,measurement,value
"CC(=O)N[C@@H](CC(=O)O)C(=O)N[C@@H](CCC(=O)O)C(=O)O [NAAG, N-acetyl-aspartyl-glutamate] (Ac-Asp-Glu-OH)",toxicity vs. concentration of NAAG (in words),toxicity increased as the concentration of NAAG increased
